PubChem BioAssay AID1259405 – NCATS – 2018
Here is a random part of about 50,000 deposited reagents. About 4,000 of them (8%) were called active. 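Mouse siRNA library applied to hamster cells; one well for each siRNA.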 Reagents against one gene are numbered here. Further read-outs or replicates are left out here.

- Aim: 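Knock-downs that lift recombinant protein yield in hamster ovary cells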 (primary screen)
- System: Chinese hamster CHO-K1 ovary cells with stable secreted eGFP expression
- Knock-down reagent: single siRNA against mouse genes, 0.8 pmol siRNA per well (2 µl of 400 nM stock)
- Time to read-out: 3 days
- Read-out: 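Per-well intracellular GFP measured by laser scanning cytometry, plus viability from ATP luminescence, each relative to plate median of non-targeting control wells, in %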
- Direction: GFP, % of control: higher = more GFP per well, higher productivity
- Hit rule: 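a knock-down is called active if GFP reaches 120% or more of non-targeting control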

GFP, % of control, by gene knocked down and reagent
Pdlim7: #1 85.1 inactive; #2 62.4 inactive; #3 30.6 inactive
Pop1: #1 112 inactive; #2 79.5 inactive; #3 92.3 inactive
Or2y1f: #1 91.1 inactive; #2 121 active; #3 82.7 inactive
Isca1: #1 52 inactive; #2 126 active; #3 92.3 inactive
Zmynd10: #1 75.3 inactive; #2 88.8 inactive; #3 71.5 inactive
Matr3: #1 106 inactive; #2 55.2 inactive; #3 57.5 inactive
Pex13: #1 77.4 inactive; #2 64.2 inactive
B3gnt5: #1 134 active; #2 104 inactive; #3 105 inactive
Pald1: #1 99.4 inactive; #2 115 inactive; #3 67.1 inactive
Vmn2r30: #1 80.8 inactive; #2 84.7 inactive; #3 56.7 inactive
Grin2c: #1 72.3 inactive; #2 112 inactive; #3 75.9 inactive
Sgo1: #1 125 active; #2 96.7 inactive; #3 69.6 inactive

Targets listed so far whose target name starts with O or o:
GFP, % of control, by gene knocked down and reagent
Or2y1f: #1 91.1 inactive; #2 121 active; #3 82.7 inactive

More entries:
GFP, % of control, by gene knocked down and reagent
Anapc5: #1 93.6 inactive; #2 86.9 inactive; #3 75.7 inactive
Neurl1a: #1 66.4 inactive; #2 121 active; #3 86.7 inactive
Saxo2: #1 81.6 inactive; #2 68.1 inactive; #3 122 active
Fabp12: #1 103 inactive; #2 73.1 inactive; #3 44.1 inactive
Pebp4: #1 77.1 inactive; #2 76.3 inactive; #3 41.6 inactive
Rbmxl2: #1 52.4 inactive; #2 84.8 inactive; #3 77.2 inactive
Rgr: #1 61.3 inactive; #2 56.6 inactive; #3 48.2 inactive
Cngb1: #1 39.6 inactive; #2 49.2 inactive; #3 152 active
Txnl1: #1 64.8 inactive; #2 70.1 inactive; #3 21.4 inactive
Anxa10: #1 89.8 inactive; #2 164 active; #3 51.4 inactive
Rundc3b: #1 208 active; #2 77.3 inactive; #3 61.6 inactive
Adad1: #1 89.6 inactive; #2 78.6 inactive; #3 72.5 inactive
Chn1: #1 83.9 inactive; #2 86.6 inactive; #3 51.7 inactive
Col1a2: #1 51.7 inactive; #2 115 inactive; #3 88.8 inactive
Cep72: #1 55 inactive; #2 113 inactive; #3 87.4 inactive
Pxk: #1 94.7 inactive
Or10am5: #1 62.3 inactive; #2 56.6 inactive; #3 91.4 inactive
